Earlier results in patent publication US12329727B2, “Use of salmeterol as an anti-coronaviral agent” (priority 2020, dated 2025).
Like-named read-outs stand apart in the source and are kept apart here. At least one structure is not confirmed: it was looked up by name or label, or the drawing left a doubt.

Assays:
[1] = tested on: MERS-pseudovirus; details: cited from earlier work
[2] = tested on: TPCs; details: cited from earlier work
[3] = tested on: Ebola; details: cited from earlier work
[4] = tested on: Ebola; details: mouse, in vivo; cited from earlier work
[5] = tested on: SARS-CoV-2; details: human cells; cited from earlier work

SMILES | MERS-COV pseudovirus infectivity [1] | Ca2+ release via TPCs [2] | Ebola infectivity [3] | Ebola infectivity [4] | activity against SARS-CoV-2 [5]
COc1ccc2cc1Oc1ccc(cc1)C[C@H]1c3cc(c(OC)cc3CCN1C)Oc1c(O)c(OC)cc3c1[C@H](C2)N(C)CC3 [fangchinoline] | impaired | blocked |  |  | 
COc1ccc2cc1Oc1ccc(cc1)C[C@H]1c3cc(c(OC)cc3CCN1C)Oc1c(OC)c(OC)cc3c1[C@H](C2)N(C)CC3 [tetrandrine] | impair | blocked | blocked | blocked | effective
